Drawing on PMC4707489, “A novel cell-penetrating peptide suppresses breast tumorigenesis by inhibiting β-catenin/LEF-1 signaling” (Scientific Reports, 2016), this text covers binding for one substance.

Chains of the proteins cited; added tags and fusions are not shown.
UniProt P35222: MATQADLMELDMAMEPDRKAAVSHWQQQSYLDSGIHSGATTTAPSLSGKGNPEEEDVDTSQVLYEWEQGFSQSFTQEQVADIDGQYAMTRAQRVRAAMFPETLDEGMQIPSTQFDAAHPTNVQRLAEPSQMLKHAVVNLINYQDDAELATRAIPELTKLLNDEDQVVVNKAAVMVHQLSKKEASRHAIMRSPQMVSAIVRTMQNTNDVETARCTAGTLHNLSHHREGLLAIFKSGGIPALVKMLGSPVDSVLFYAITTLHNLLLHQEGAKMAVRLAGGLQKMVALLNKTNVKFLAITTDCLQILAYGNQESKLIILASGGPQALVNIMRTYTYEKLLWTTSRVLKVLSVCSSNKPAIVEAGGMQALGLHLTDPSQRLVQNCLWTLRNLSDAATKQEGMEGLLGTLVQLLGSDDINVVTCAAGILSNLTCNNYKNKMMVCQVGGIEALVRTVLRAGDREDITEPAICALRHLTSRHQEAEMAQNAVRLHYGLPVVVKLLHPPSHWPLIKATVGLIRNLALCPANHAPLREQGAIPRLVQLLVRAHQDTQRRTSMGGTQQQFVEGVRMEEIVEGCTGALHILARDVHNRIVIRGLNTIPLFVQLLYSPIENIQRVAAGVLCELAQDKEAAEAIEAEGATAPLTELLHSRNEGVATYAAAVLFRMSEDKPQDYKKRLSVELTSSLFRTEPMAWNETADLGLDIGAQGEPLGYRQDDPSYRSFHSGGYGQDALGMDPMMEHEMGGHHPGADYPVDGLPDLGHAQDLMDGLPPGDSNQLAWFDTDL
UniProt Q9UJU2: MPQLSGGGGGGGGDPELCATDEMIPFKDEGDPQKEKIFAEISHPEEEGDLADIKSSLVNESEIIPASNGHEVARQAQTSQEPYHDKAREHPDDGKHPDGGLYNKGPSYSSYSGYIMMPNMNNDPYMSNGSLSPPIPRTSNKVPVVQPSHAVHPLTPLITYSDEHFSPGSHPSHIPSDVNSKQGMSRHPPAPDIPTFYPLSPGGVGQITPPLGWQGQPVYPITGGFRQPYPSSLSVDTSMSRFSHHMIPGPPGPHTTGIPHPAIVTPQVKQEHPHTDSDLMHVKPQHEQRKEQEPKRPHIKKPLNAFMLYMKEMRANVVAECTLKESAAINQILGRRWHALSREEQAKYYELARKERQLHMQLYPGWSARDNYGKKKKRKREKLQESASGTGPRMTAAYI

The target in the test is β-catenin (human (endogenous in MCF-7 and MDA-MB-231)) (UniProt P35222). Briefly: co-IP; MCF-7 cells, with and without the peptide (indicated concentrations, 2 hr); RIPA lysate; immunoprecipitation with anti-β-catenin and protein-G beads, blot with anti-LEF-1.

No constants are given. Whether binding was seen depends on the method and setting. In cells and extracts the contact can be indirect. Some entries that bind do so weakly or less than the wild type.

“lymphoid enhancer factor-1 (from UniProt Q9UJU2 1-399)”: the binding entry is “binds”.
